Values from PubChem BioAssay AID686937 (Drosophila RNAi Screening Center, 2013)

Purpose: 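Genes in the fly needed for secretion of protein constitutively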 (primary screen)
Cells: Drosophila S2 cells expressing secreted horseradish peroxidase
Reagent: long dsRNA against Drosophila genes
Timing: about 5.5 days (5 days dsRNA, then 12 h reporter induction)
Conditions: reporter expression induced after 5 days of dsRNA, read 12 h later; inducer not stated
Measured: 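Chemiluminescent measurement of peroxidase in the medium 12 h after reporter induction, following 5 days of dsRNA, given as a z-score per plate; higher means more secretion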
Scale: z-score: higher = more reporter secreted into medium
In all, the deposit lists about 23,000 reagents; this is a random part of those with a known target gene and a result. 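Reduced-secretion tags in replicate 1 do not always agree with the z-scores; no criterion for assigning the tags was given.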 Names joined by + are all predicted targets of the reagent. Further read-outs or replicates are left out here. The record does not give: the amount of reagent.

no.	target	amplicon	z-score, replicate 1	z-score, replicate 2	z-score, replicate 3	z-score, replicate 4
1	puml (pummelig)	DRSC06793	0.4	0.39		
2	Rab9	DRSC03281	0.38	0.44		
3	CG15535	DRSC15071	0.4	0.24		
4	Chchd3 (Coiled-coil-helix-coiled-coil-helix domain containing 3)	DRSC16981	-1.6	-2.44		
5	CG10324	DRSC14230	-2.4	-1.12		
6	ZnT33D (Zinc transporter 33D)	DRSC02591	0.12	0.1		
7	Dref (DNA replication-related element factor)	DRSC03319	-0.96	-0.66		
8	l(1)G0320 (lethal (1) G0320)	DRSC18255	0.21	0.23		
9	CG11342	DRSC08175	0.14	0.23		
10	CG42676	DRSC08227	0.32	0.37		
11	CG42676	DRSC08392	0.23	0.31		
12	CG17294	DRSC02596	0.26	0.27		
13	CG34268	DRSC07874	0.26	0.32		
14	CG40439	DRSC22707	0.35	-0.63		
15	CG3502 + CG9863	DRSC04578	0.31	0.4		
16	CG15141	DRSC02441	0.36	0.2		
17	CG15141	DRSC02442	0.16	0.3		
18	Rab7	DRSC16810	0.04	-0.18		
19	CG42662 + CG30080	DRSC05571	0.3	0.55		
20	CG13937	DRSC08406	0.73	0.59		
21	CR12842 (pseudo)	DRSC06188	0.26	0.2		
22	Ns2 (Nucleostemin 2)	DRSC06993	0.37	0.61		
23	CG30056	DRSC21752	-0.62	-0.85		
24	CG3251	DRSC00586	0.45	0.47		
25	betaTub60D (beta-Tubulin at 60D)	DRSC04673	0.07	0.07		
26	betaTub60D (beta-Tubulin at 60D)	DRSC22218	-0.91	0.02		
27	NPFR (Neuropeptide F receptor)	DRSC12173	0.17	0.45		
28	Mrgn1 (Mahogunin ring finger 1)	DRSC20223	0.03	-0.07		
29	CG15160	DRSC02461	0.5	0.54		
30	CG12520	DRSC09892	0.19	0.33		
31	sni (sniffer)	DRSC17770	0.15	0.4		
32	Pgant6 (Polypeptide N-Acetylgalactosaminyltransferase 6)	DRSC08552	-3.11	-2.6		
33	Osi11 (Osiris 11)	DRSC12282	0.42	0.83		
34	Nprl3 (Nitrogen permease regulator-like 3)	DRSC11044	0.66	0.56		
35	CG15177	DRSC12557	0.28	0.01		
36	hng1 (hinge1)	DRSC04555	-0.01	0.18		
37	FASN1 (Fatty acid synthase 1)	DRSC00268	-6.48	-6.17		
38	CG11664	DRSC18650	0.18	0.33		
39	CG34054	DRSC05277	0.33	0.2		
40	CG42523	DRSC00251	0.26	0.41		
41	CG4911	DRSC10456	0.38	0.31		
42	CG14105	DRSC10107	0.23	-0.03		
43	CG17715	DRSC11950	0.46	0.06		
44	CG7546	DRSC08885	0.41	0.29		
45	CG7546	DRSC10871	-0.03	0.5	0.53	0.22
46	CG7546	DRSC22148	0.51	0.45		
47	CrzR (Corazonin receptor)	DRSC09781	0.5	0.56		
48	CrzR (Corazonin receptor)	DRSC09782	-2.72	0.5		
49	CG42331	DRSC14633	-0.01	0.28		
50	CG42331	DRSC16126	0.39	0.22		
51	Ephrin	DRSC17165	0.44	0.29		
52	CG6553	DRSC07002	0.34	0.34		
53	mdu (meduse)	DRSC19860	-1.59	-1.21		
54	lncRNA:CR43409 (long non-coding RNA:CR43409)	DRSC01164	0.62	-0.18		
55	Ptp99A (Protein tyrosine phosphatase 99A)	DRSC13933	0.54	0.19	0.64	0.29
56	Ptp99A (Protein tyrosine phosphatase 99A)	DRSC13939	0.62	0.04		
57	Ptp99A (Protein tyrosine phosphatase 99A)	DRSC14319	0.26	0.36		
58	Ptp99A (Protein tyrosine phosphatase 99A)	DRSC14320	0.12	0.24		
59	Ptp99A (Protein tyrosine phosphatase 99A)	DRSC16803	0.31	0.39		
60	Ptp99A (Protein tyrosine phosphatase 99A)	DRSC22125	0	0.34		
61	Ptp99A (Protein tyrosine phosphatase 99A)	DRSC22477	0.65	-0.02		
62	SmD2 (Small ribonucleoprotein particle protein SmD2)	DRSC12536	-4.68	-3		
63	CG33095	DRSC14441	0.29	0.27		
64	CG30323	DRSC07656	0.22	0.13		
65	Pkn + Tsen15	DRSC21969	1	0.97		
66	Mapmodulin	DRSC06956	0.42	0.35		
67	Rbfox1 (RNA-binding Fox protein 1)	DRSC09034	0.24	0.24	0.14	0.2
68	Rbfox1 (RNA-binding Fox protein 1)	DRSC10157	0.11	0.46	0.99	0.79
69	Rbfox1 (RNA-binding Fox protein 1)	DRSC10320	-0.72	-0.76		
70	Rbfox1 (RNA-binding Fox protein 1)	DRSC21378	0.52	0.08		
71	Ent2 (Equilibrative nucleoside transporter 2)	DRSC02124	0.02	0.01		
72	mIF2 (mitochondrial translation initiation factor 2)	DRSC14510	0.37	0.18		
73	Cp7Fc (Chorion protein c at 7F)	DRSC18035	0.3	0.55		
74	mys (myospheroid)	DRSC18799	0.49	0.82		
75	ppk16 (pickpocket 16)	DRSC02736	0.51	0.27		
76	hng3 (hinge3)	DRSC08367	0.48	0.37		
77	GstD11 (Glutathione S transferase D11)	DRSC15251	0.15	-0.17		
78	CG13168	DRSC06295	0.14	0.17		
79	Hsp70Aa + Hsp70Ab	DRSC21246	-1.65	-3.65		
80	CheA87a (Chemosensory protein A 87a)	DRSC14839	0.3	0.62		
81	CG14331	DRSC14810	0.01	-0.02		
82	CG3123	DRSC00570	-0.14	0.03		
